Source: patent US8580775B2, “Use of derivatives of sinapinic acid and compositions comprising such derivatives” (Cognis IP Management GmbH, priority 2007, dated 2013)
For at least one compound, name, drawing or mass did not settle the structure.

Tested on: Melanocytes (B16 cell line)
Assay: Melanogenesis Inhibition Assay
Assay type: cell-based
Settings: summary in words of Table 3
Protocol: Melanocytes (B16 cell line) were inoculated in standard medium of cell culture with foetal calf serum (FCS). After an incubation of 3 days at 37° C. under 5% CO2, growth medium was exchanged for standard medium with a range of concentrations for each compound to be tested and a control without ingredient. After an incubation of 3 days, the level of melanin was measured by recording the optical density at 475 nm. After washing the cells with a balanced salt buffer, and homogenisation in a solution of 0.1 M NaOH, the number of viable cells was determined by evaluation of the level of cellular proteins (Bradford's method).
The results are expressed in % against control (cell culture medium without compound) as a mean+/−SEM (Standard Error of Mean) on 2 or 3 assays, each in triplicate.

SMILES: CCOC(=O)/C(=C/c1cc(OC)c(O)c(OC)c1)C(C)=O [example 2]
- rate of melanin synthesis in melanocytes: decreased
